From patent publication US4966169A, “Process for manufacturing cigarettes” (priority 1988, dated 1990)

Assay: Transfer of cyclohexanol from tobacco into smoke (standard smoking machine, Cambridge filter pads, GC)
[1] = hand-laced, 8750 micrograms per cigarette
[2] = production run, 620 micrograms per cigarette

Compound: OC1CCCCC1 [Cyclohexanol]
- smoked concentration [1]: 2778 milligrams per cubic meter
- smoked concentration as % of TLV [1]: 1389%
- factor by which delivery exceeded total concentrations of TSNA's in the cigarette [2]: 132
- smoked concentration as % of TLV [2]: 99%
